Experimental data as given in patent US20180360767A1, “BIOCOMPATIBLE PARTICLES AND METHODS OF MAKING AND USE THEREOF” (priority 2015, published 2018).
Values after ≈ are worked out from the molar mass of the structure shown.

Tests used:
[1] = tested on: HeLa cells; assay: In vitro cytotoxicity, MTT assay; type: cell-based; settings: Homo sapiens, 24 h treatment, doxorubicin concentration, read-out: half-maximal inhibitory concentration (IC50)
Method: HeLa cells (1×10^4 cells per well) were seeded in the 96-well plates. […] After 4 h of incubation, the medium was removed, and the cells were mixed with 150 μl of dimethyl sulfoxide. The absorbance was measured at a test wavelength of 570 nm and a reference wavelength of 630 nm by a microplate reader (Infinite […], Tecan).

[2] = pH range of 2.5 to 8; cited from earlier work

Row | Compound | IC50 [1] [µg/mL] | solubility change with pH [2]
1 | COc1cccc2c1C(=O)c1c(O)c3c(c(O)c1C2=O)C[C@@](O)(C(=O)CO)C[C@@H]3O[C@H]1C[C@H](N)[C@H](O)[C@H](C)O1 [Doxorubicin] | 1.33 (≈ 2.45 µM) | –
2 | CC(=O)O[C@H]1C(=O)[C@@]2(C)[C@H]([C@H](OC(=O)c3ccccc3)[C@]3(O)C[C@H](OC(=O)[C@H](O)[C@@H](NC(=O)c4ccccc4)c4ccccc4)C(C)=C1C3(C)C)[C@]1(OC(C)=O)CO[C@@H]1C[C@@H]2O [Paclitaxel] | – | insignificant solubility change
